Where a name gives a salt, the structure may show the parent alone. This is one part of the list. Plates or batches differ in their baseline, so values are only roughly comparable.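 A K-12 lab model strain is cultured statically in 96-well plates; biofilm is measured as the absorbance of crystal violet stain retained in the wells. Drugs counted as candidate specific biofilm blockers if they strongly reduced staining while slowing planktonic growth by under 70%.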
test system: Escherichia coli W3110; assay: biofilm formation (crystal violet staining) relative to untreated control; higher = more biofilm; details: 10 µM; 20-24 h; 30 °C; TB

SMILES	biofilm formation [%]
Nc1nc(=O)c2nc(CNc3ccc(C(=O)N[C@@H](CCC(=O)O)C(=O)O)cc3)cnc2[nH]1 [Folic acid]	72
CC(=O)N[C@@H](CC(C)C)C(=O)O [N-Acetyl-L-leucine]	54
Nc1nc(F)nc2c1ncn2[C@@H]1O[C@H](CO)[C@@H](O)[C@@H]1O [Fludarabine]	52
CC[C@H]1OC(=O)[C@H](C)[C@@H](O[C@H]2C[C@@](C)(OC)[C@@H](O)[C@H](C)O2)[C@H](C)[C@@H](O[C@@H]2O[C@H](C)C[C@H](N(C)C)[C@H]2O)[C@](C)(O)C[C@@H](C)/C(=N\OCOCCOC)[C@H](C)[C@@H](O)[C@]1(C)O [Roxithromycin]	61
NC[C@H]1O[C@H](O[C@H]2[C@H](O[C@@H]3O[C@H](CO)[C@@H](O)[C@H]3O)[C@@H](O)[C@H](N)C[C@@H]2N)[C@H](N)[C@@H](O)[C@@H]1O [Ribostamycin sulfate salt]	46
Cc1ccc(C(=O)c2cc(O)c(O)c([N+](=O)[O-])c2)cc1 [Tolcapone]	45
COc1ccc2[nH]cc(CCNC(C)=O)c2c1 [Melatonin]	90
COc1ccc(C(=O)NCc2cccnc2)cc1C(=O)NCc1cccnc1 [Picotamide monohydrate]	62
O=C(NCCNCC(O)COc1ccc(O)cc1)N1CCOCC1 (stereo not given) [Xamoterol hemifumarate]	54
CN(C)CCOC1=Cc2ccccc2Sc2ccc(Cl)cc21 [Zotepine]	79
CCN(Cc1ccncc1)C(=O)C(CO)c1ccccc1 (stereo not given) [Tropicamide]	76
Cc1ncc([N+](=O)[O-])n1CCO [Metronidazole]	76
CCN(CC)CC#CCOC(=O)C(O)(c1ccccc1)C1CCCCC1 (stereo not given) [Oxybutynin chloride]	50
OC(CCN1CCCCC1)(c1ccccc1)C1CC2C=CC1C2 (stereo not given) [Biperiden hydrochloride]	62
CN1C2CCCC1CC(NC(=O)c1nn(C)c3ccccc13)C2 (stereo not given) [Granisetron]	56
CC(C)N1CCN(c2ccc(OCC3COC(Cn4cncn4)(c4ccc(Cl)cc4Cl)O3)cc2)CC1 (stereo not given) [Terconazole]	76
CCN(CC)CCNC(=O)c1cc(S(C)(=O)=O)ccc1OC [Tiapride hydrochloride]	64
O=C(CCCN1CC=C(n2c(=O)[nH]c3ccccc32)CC1)c1ccc(F)cc1 [Droperidol]	86
C#CCN(C)Cc1ccccc1 [Pargyline hydrochloride]	63
COc1ccc2cc(CCC(C)=O)ccc2c1 [Nabumetone]	62
CCn1cc(C(=O)O)c(=O)c2ccc(C)nc21 [Nalidixic acid sodium salt]	63
Cc1ccc(S(=O)(=O)NC(=O)NN2CC3CCCC3C2)cc1 (stereo not given) [Gliclazide]	104
CCCCS(=O)(=O)N[C@@H](Cc1ccc(OCCCCC2CCNCC2)cc1)C(=O)O [Tirofiban hydrochloride]	72
COc1cc2nc(N3CCN(C(=O)c4ccco4)CC3)nc(N)c2cc1OC [Prazosin hydrochloride]	53
CCn1cc(C(=O)O)c(=O)c2cnc(N3CCNCC3)nc21 [Pipemidic acid]	9

SMILES	biofilm formation [%]
COc1nc(C)nc(Cl)c1NC1=NCCN1 [Moxonidine]	72
CC(=O)Oc1cccc2c1C(=O)c1c(OC(C)=O)cc(C(=O)O)cc1C2=O [Diacerein]	60
Nc1ccc(S(=O)(=O)c2ccc(N)cc2)cc1 [Dapsone]	42
OCCN1CCN(CCCN2c3ccccc3Sc3ccc(Cl)cc32)CC1 [Perphenazine]	54
CN(C)CCc1c[nH]c2ccc(Cn3cncn3)cc12 [Rizatriptan benzoate]	72
CC1(C)OC(=O)NC1=O [Dimethadione]	79
N=C(N)NCC1COC2(CCCCC2)O1 (stereo not given) [Guanadrel sulfate]	65
CCC[C@H](N[C@@H](C)C(=O)N1[C@H](C(=O)O)C[C@@H]2CCCC[C@@H]21)C(=O)OCC [Perindopril]	80
COc1ccc(NS(=O)(=O)c2ccc(N)cc2)nn1 [Sulfamethoxypyridazine]	43
Nc1ccc(C(=O)NCC(=O)O)cc1 [Aminohippuric acid]	48
CO[C@@H]1[C@@H](OC(N)=O)[C@@H](O)[C@H](Oc2ccc3c(O)c(NC(=O)c4ccc(O)c(CC=C(C)C)c4)c(=O)oc3c2C)OC1(C)C [Novobiocin sodium salt]	57
CCN1CCN(C(=O)N[C@@H](C(=O)N[C@@H]2C(=O)N3[C@@H]2SC(C)(C)[C@@H]3C(=O)O)c2ccccc2)C(=O)C1=O [Piperacillin sodium salt]	15
CN(C)CCC[C@@]1(c2ccc(F)cc2)OCc2cc(C#N)ccc21 [Escitalopram oxalate]	77
CCCC(=O)Nc1ncnc2c1ncn2[C@@H]1O[C@@H]2COP(=O)(O)O[C@H]2[C@H]1OC(=O)CCC [Bucladesine sodium salt]	63
CN1CCCC(n2nc(Cc3ccc(Cl)cc3)c3ccccc3c2=O)CC1 (stereo not given) [Azelastine hydrochloride]	59
CN1CCCCC1CCN1c2ccccc2Sc2ccc([S+](C)[O-])cc21 (stereo not given) [Mesoridazine besylate]	75
NC(=O)N/N=C/c1ccc([N+](=O)[O-])o1 [Nitrofural]	67
O=c1oc2ccccc2c(O)c1Cc1c(O)c2ccccc2oc1=O [Dicumarol]	59
CN1CCN(CCCN2c3ccccc3Sc3ccc(Cl)cc32)CC1 [Prochlorperazine dimaleate]	78
Cc1nc(=O)c2cc(CN(C)c3ccc(C(=O)N[C@@H](CCC(=O)O)C(=O)O)s3)ccc2[nH]1 [Raltitrexed]	93
CN1CCN(c2c(F)cc3c(=O)c(C(=O)O)cn(CCF)c3c2F)CC1 [Fleroxacin]	15
C[C@H](CCC(=O)O)[C@H]1CC[C@H]2[C@@H]3[C@H](O)C[C@@H]4C[C@H](O)CC[C@]4(C)[C@H]3CC[C@]12C [Chenodiol]	57
CC(=O)OCC(CCn1cnc2cnc(N)nc21)COC(C)=O [Famciclovir]	106
NNc1nncc2ccccc12 [Hydralazine hydrochloride]	78
COc1c2occc2c(OC)c2c(=O)cc(C)oc12 [Khellin]	94

SMILES	biofilm formation [%]
Nc1cc(C(Cl)=C(Cl)Cl)c(S(N)(=O)=O)cc1S(N)(=O)=O [Clorsulon]	88
CC[C@H](C)C(=O)O[C@H]1CCC=C2C=C[C@H](C)[C@H](CC[C@@H]3C[C@@H](O)CC(=O)O3)[C@H]21 [Mevastatin]	87
Cc1c(N(C)CS(=O)(=O)O)c(=O)n(-c2ccccc2)n1C [Dipyrone]	86
CC(NCCC(c1ccccc1)c1ccccc1)c1ccccc1 (stereo not given) [Fendiline hydrochloride]	70
O=c1[nH]c(=O)n(C2CCCO2)cc1F (stereo not given) [Tegafur]	71
CCN(CC)CCc1nc(-c2ccccc2)no1 [Oxalamine citrate salt]	63
CNCC(O)c1ccc(OC(=O)C(C)(C)C)c(OC(=O)C(C)(C)C)c1 (stereo not given) [Dipivefrin hydrochloride]	97
CC(C)NCC(O)c1ccc(O)c(O)c1 (single isomer, unassigned; (+)) [(+)-Isoproterenol (+)-bitartrate salt]	59
CC(C)NC[C@@H](O)COc1cccc2ccccc12 [(R)-Propranolol hydrochloride]	57
CCCNCC(O)COc1ccccc1C(=O)CCc1ccccc1 (stereo not given) [Propafenone hydrochloride]	81
NC(=O)C(c1ccccc1)(c1ccccc1)[C@@H]1CCN(CCc2ccc3c(c2)CCO3)C1 [Darifenacin hydrobromide]	92
COc1ccccc1OCC(O)CN1CCN(CC(=O)Nc2c(C)cccc2C)CC1 (stereo not given) [Ranolazine]	80
COc1cc([C@@H]2c3cc4c(cc3[C@@H](O[C@@H]3O[C@@H]5CO[C@@H](C)O[C@H]5[C@H](O)[C@H]3O)[C@H]3COC(=O)[C@H]23)OCO4)cc(OC)c1O [Etoposide]	66
C[C@H]1C[C@@H]2[C@H]([C@@H](O)C[C@@]3(C)[C@H]2CC[C@]3(O)C(=O)CO)[C@@]2(C)C=CC(=O)C=C12 [Methylprednisolone, 6-alpha]	45
CC(C)NCC(O)c1ccc2ccccc2c1 (stereo not given) [Pronethalol hydrochloride]	73
Nc1nc2n[nH]nc2c(=O)[nH]1 [Azaguanine-8]	85
CN(C)c1nc(N(C)C)nc(N(C)C)n1 [Altretamine]	64
O=C1OCCN1/N=C/c1ccc([N+](=O)[O-])o1 [Furazolidone]	58
O=S(=O)(O)c1cc(O)ccc1O [Ethamsylate]	60
c1ccc([C@H]2CN3CCSC3=N2)cc1 [Levamisole hydrochloride]	63
CCC(=O)O[C@]1(C(=O)CCl)[C@@H](C)C[C@H]2[C@@H]3CCC4=CC(=O)C=C[C@]4(C)[C@@]3(F)[C@@H](O)C[C@@]21C [Clobetasol propionate]	83
Cc1cc(CC(=O)O)n(C)c1C(=O)c1ccc(Cl)cc1 [Zomepirac sodium salt]	73
CC1Cc2ccccc2N1NC(=O)c1ccc(Cl)c(S(N)(=O)=O)c1 (stereo not given) [Indapamide]	85
O=C(NCC(O)CO)c1c(I)c(C(=O)NCC(O)CO)c(I)c(N(CCO)C(=O)CO)c1I (stereo not given) [Ioversol]	73
CO/N=C(\C(=O)N[C@@H]1C(=O)N2C(C(=O)O)=C(COC(N)=O)CS[C@H]12)c1ccco1 [Cefuroxime sodium salt]	6

Among those listed so far, 20 have four or more nitrogen atoms.
SMILES	biofilm formation [%]
Nc1nc(=O)c2nc(CNc3ccc(C(=O)N[C@@H](CCC(=O)O)C(=O)O)cc3)cnc2[nH]1 [Folic acid]	72
Nc1nc(F)nc2c1ncn2[C@@H]1O[C@H](CO)[C@@H](O)[C@@H]1O [Fludarabine]	52
NC[C@H]1O[C@H](O[C@H]2[C@H](O[C@@H]3O[C@H](CO)[C@@H](O)[C@H]3O)[C@@H](O)[C@H](N)C[C@@H]2N)[C@H](N)[C@@H](O)[C@@H]1O [Ribostamycin sulfate salt]	46
COc1ccc(C(=O)NCc2cccnc2)cc1C(=O)NCc1cccnc1 [Picotamide monohydrate]	62
CN1C2CCCC1CC(NC(=O)c1nn(C)c3ccccc13)C2 (stereo not given) [Granisetron]	56
CC(C)N1CCN(c2ccc(OCC3COC(Cn4cncn4)(c4ccc(Cl)cc4Cl)O3)cc2)CC1 (stereo not given) [Terconazole]	76
COc1cc2nc(N3CCN(C(=O)c4ccco4)CC3)nc(N)c2cc1OC [Prazosin hydrochloride]	53
CCn1cc(C(=O)O)c(=O)c2cnc(N3CCNCC3)nc21 [Pipemidic acid]	9
COc1nc(C)nc(Cl)c1NC1=NCCN1 [Moxonidine]	72
CN(C)CCc1c[nH]c2ccc(Cn3cncn3)cc12 [Rizatriptan benzoate]	72
COc1ccc(NS(=O)(=O)c2ccc(N)cc2)nn1 [Sulfamethoxypyridazine]	43
CCN1CCN(C(=O)N[C@@H](C(=O)N[C@@H]2C(=O)N3[C@@H]2SC(C)(C)[C@@H]3C(=O)O)c2ccccc2)C(=O)C1=O [Piperacillin sodium salt]	15
CCCC(=O)Nc1ncnc2c1ncn2[C@@H]1O[C@@H]2COP(=O)(O)O[C@H]2[C@H]1OC(=O)CCC [Bucladesine sodium salt]	63
NC(=O)N/N=C/c1ccc([N+](=O)[O-])o1 [Nitrofural]	67
Cc1nc(=O)c2cc(CN(C)c3ccc(C(=O)N[C@@H](CCC(=O)O)C(=O)O)s3)ccc2[nH]1 [Raltitrexed]	93
CC(=O)OCC(CCn1cnc2cnc(N)nc21)COC(C)=O [Famciclovir]	106
NNc1nncc2ccccc12 [Hydralazine hydrochloride]	78
Nc1nc2n[nH]nc2c(=O)[nH]1 [Azaguanine-8]	85
CN(C)c1nc(N(C)C)nc(N(C)C)n1 [Altretamine]	64
CO/N=C(\C(=O)N[C@@H]1C(=O)N2C(C(=O)O)=C(COC(N)=O)CS[C@H]12)c1ccco1 [Cefuroxime sodium salt]	6

From the supplement of paper PMC7580552
